This is one part of the list. Shown are side measurements of this screen, not its main read-out; they come without a call. Most of these compounds were active or inconclusive in the main read-out, so they are no random draw. Potencies come from curve fits of mixed quality, noted in brackets.

This assay can be described thus: qHTS Assay for Lipid Storage Modulators in Drosophila S3 Cells.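 For cell number change: cells counted by Cell Tracker Red CMTPX staining in the red channel.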 The note with it: BODIPY lipid droplet fluorescence, 18-24 h; for cell number change: measured here: cell count max response, cells fed with added oleic acid. Put shortly: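 Laser-scanning cytometry quantifies lipid droplet accumulation (500–530 nm total intensity; droplet/cell object ratio) in oleic acid-fed (400 uM added) Drosophila S3 cells treated with a concentration series. 20 uM Triacsin C defined 100% inhibition.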

Where [1] appears, read: measured here: cell number channel AC50, cells fed with added oleic acid.
Setting [2] is: measured here: lipid fluorescence (Fed channel) AC50, cells fed with added oleic acid.

Turning to `CC(C)c1ccc(NC(=O)C2CSC3(C)CCC(=O)N23)cc1` (configuration not stated), the cell number change is 25.4%. Besides, the AC50 (as a rule, the concentration giving half of the maximal activity seen) under setting [1] was 0.259 µM [rising, full curve, poor fit]. Also, the half-maximal activity concentration (AC50) under setting [2] is 16.4 µM [rising, partial curve].

On to `CC(C)(CCC(=S)N1CCOCC1)C1CCCCC1`, for which the cell number change came out at 9.12%. The AC50 under setting [2] is 29.1 µM [rising, single point].

On to `Cc1ccc(-c2c(C(=O)N/N=C/c3cccc(Cl)c3)nnn2-c2nonc2N)cc1`, for which the cell number change was found to be 29.9%.

For the compound `O=C(NCCNC(=O)c1cc(OCC(F)(F)F)ccc1OCC(F)(F)F)Nc1cccc(C(F)(F)F)c1`, the cell number change is -52.3%. Moreover, the AC50 under setting [1] is 20.6 µM [falling, single point]. For the same compound, the AC50 under setting [2] is 25.9 µM [falling, partial curve].

On to `Cc1ccc(-n2nc3c(=O)n(CCCC(=O)NCc4cccc(F)c4)nc(C)c3c2C)cc1`, for which the cell number change is -1.15%. Moreover, under setting [2], the AC50 was 29.1 µM [falling, single point].

In the case of `COc1ccc(/[N+]([O-])=C/c2ccco2)cc1`, the cell number change was found to be 3.13%. Further, under setting [2], the AC50 was 0.517 µM [rising, partial curve, poor fit].

For the compound `O=C(CNC(=S)N(CCCN1CCOCC1)Cc1cccs1)N1CCCCCC1`, the cell number change turned out to be 28.7%. Moreover, under setting [2], the AC50 was 29.1 µM [rising, single point].

As for `O=C(CSc1nc2ccccc2c(=O)[nH]1)N1CCN(S(=O)(=O)c2ccccc2)CC1`, the cell number change was -21.5%. Moreover, under setting [1], the AC50 is 0.82 µM [rising, single point].

`O=C(OCC#CCSc1nnc(-c2cccc3ccccc23)o1)c1cc2ccccc2o1`: the AC50 under setting [2] was 0.164 µM [rising, full curve, poor fit].

For the compound `Cn1c(C(=O)N2CCN(C(=O)c3ccco3)CC2)cc2c(=O)n(C)c3ccccc3c21`, the cell number change was found to be 31.3%. Also, the AC50 under setting [1] was 32.6 µM [rising, single point].

As to `COc1ccc(NC(=O)CCSc2cc(C)c3ccccc3n2)cc1`, the cell number change amounted to 168%.

On to `Cc1ccc(-n2ncc3c(NCc4ccco4)ncnc32)c(C)c1`, for which the AC50 under setting [1] is 0.184 µM [rising, full curve, poor fit].

On to `COc1ccccc1NC(C#N)c1ccccc1OCc1ccccc1` (configuration not stated), for which the cell number change is -2.25%. In addition, the AC50 under setting [2] was 14.6 µM [rising, partial curve, poor fit].

For `O=C(O)CC(NC(=O)C(F)(F)F)c1ccc2c(c1)OCO2` (configuration not stated), the cell number change was -56.3%. The AC50 under setting [1] was 2.06 µM [falling, partial curve]. Further, the AC50 under setting [2] is 1.46 µM [falling, full curve].

For the compound `C[C@@H](CSc1ccccc1)CN1CC[C@H](C(C)(C)C)CCC1=O`, the cell number change is -3.89%. The AC50 under setting [2] was 25.9 µM [falling, single point].

Take `COc1ccc(CN=Cc2c(C(=O)O)[nH]c3ccccc23)cc1`: the cell number change was -18.8%. Also, under setting [1], the AC50 was 5.8 µM [falling, single point]. Also, under setting [2], the AC50 was 5.8 µM [falling, partial curve, poor fit].

`Cc1cc2n(n1)C(c1ccc3c(c1)OCO3)Nc1ccccc1-2` (configuration not stated): the cell number change was -23.1%. Also, the AC50 under setting [2] is 0.58 µM [rising, full curve, poor fit].

On to `Cc1cc(C(=O)NC2CCCc3ccccc32)c(C)o1` (configuration not stated), for which the cell number change worked out at 45.1%. In addition, the AC50 under setting [1] is 5.17 µM [rising, single point].

On to `O=S(=O)(c1ccccc1)N1CCN(Cc2ccccc2C(F)(F)F)CC1`, for which the cell number change was -1.25%. Moreover, the AC50 under setting [2] was 7.31 µM [rising, single point].

For the compound `Cc1nnc(N/N=C/c2ccc([N+](=O)[O-])cc2)n1N`, the cell number change is -2.17%.

For the compound `CCOc1ccc(NC(=O)CN(C)C(=O)CSCc2c(C)noc2C)cc1OCC`, the cell number change was -21.7%.

On to `Cc1ccnn1CC(=O)N/N=C/c1cccs1`, for which the cell number change was -3.54%.

In the case of `CCn1cc(C(=O)OCC(=O)Nc2cc(S(=O)(=O)N(C)C)ccc2C)c(=O)c2ccc(C)nc21`, the AC50 under setting [2] was 0.00461 µM [rising, full curve, poor fit].

Turning to `CC(C)(C)C1CCc2c(sc3nc(SCC(N)=O)nc(N)c23)C1` (configuration not stated), the cell number change was -47.7%. Besides, the AC50 under setting [1] is 18.4 µM [falling, single point]. Besides, under setting [2], the AC50 was 16.4 µM [falling, single point].

As for `CCOc1ccc(C2NC(=O)c3n[nH]c(C)c32)cc1` (configuration not stated), the AC50 under setting [2] is 0.103 µM [rising, full curve, poor fit].

Regarding `CCCN1C(=O)c2cc(C(=O)NC3CCCCCC3)ccc2C1O` (configuration not stated), the AC50 under setting [2] is 2.91 µM [rising, single point].

Consider `COc1ccc(NC(=O)c2ccccc2Oc2ccccc2)c(OC)c1`, for which the cell number change is -2.91%.

With `COc1cccc(-c2cc3nc4c(c(N5CCC6(CC5)OCCO6)n3n2)CCCC4)c1`, the AC50 under setting [2] was 0.13 µM [falling, full curve, poor fit].

In the case of `CCC1CCCCN1C(=S)Nc1ccc(S(=O)(=O)Nc2ncccn2)cc1` (configuration not stated), under setting [2], the AC50 is 29.1 µM [rising, single point].

`COc1cc(NC(=O)C2CCCN2C(=O)OCc2ccccc2)cc(OC)c1` (configuration not stated): the AC50 was 2.59 µM [rising, partial curve] under setting [1] and 2.59 µM [rising, partial curve] under setting [2].

In the case of `Cc1ccc(S(=O)(=O)NC(C)C(=O)OCC(=O)N(C)c2ccccc2)cc1` (configuration not stated), the cell number change is -12.1%. Further, under setting [1], the AC50 is 2.59 µM [falling, single point]. Further, under setting [2], the AC50 is 0.0259 µM [falling, full curve, poor fit].

Consider `COc1ccc(NC(=O)CCSc2nnnn2C)cc1`, for which the cell number change was found to be 8.17%.

For the compound `CCCCn1c(N)c(N(CCOC)C(=O)c2cnc(C)cn2)c(=O)[nH]c1=O`, the cell number change amounted to 2.45%. For the same compound, under setting [2], the AC50 is 13 µM [rising, partial curve].

For the compound `O=S(=O)(NCC(c1ccc2c(c1)OCO2)N1CCN(c2ccccc2)CC1)c1ccccc1` (configuration not stated), the cell number change was 150%. In addition, the AC50 under setting [1] was 29.1 µM [rising, single point].

Take `Cc1ccccc1-n1c(C)nnc1SCC(=O)N1CC(=O)Nc2ccccc21`: the cell number change was determined as 2.66%. For the same compound, the AC50 under setting [2] is 23.1 µM [rising, single point].

On to `O=C(CSc1nnc(NC(=O)c2cccc(Cl)c2)s1)NCC1CCCO1` (configuration not stated), for which the cell number change is 24.6%.

In the case of `C/C(=N\NS(=O)(=O)c1ccc(C)cc1)c1cccs1`, the cell number change amounted to 7.26%.

`O=C(NCCc1ccco1)C(=O)NCCC1CCCCN1S(=O)(=O)c1ccccc1` (configuration not stated): the cell number change was -28.2%. In addition, the AC50 under setting [2] is 0.146 µM [falling, full curve, poor fit].

Consider `COc1ccc(Cl)cc1S(=O)(=O)Nc1ncn[nH]1`, for which the cell number change amounted to 2.38%. Further, under setting [1], the AC50 is 6.51 µM [rising, single point].

With `O=C(Nc1nc2ccc(F)cc2s1)C1CC(=O)N(c2ccc3c(c2)OCCO3)C1` (configuration not stated), the cell number change is -1.5%.

For `CCN(CC)S(=O)(=O)c1cccc(NN=c2c(=O)c3ccccc3c2=O)c1`, the cell number change was found to be 8.52%. For the same compound, under setting [2], the AC50 is 0.206 µM [rising, full curve, poor fit].

On to `N#CC1=C(N)Oc2c(ccc3ccccc23)C1c1ccsc1` (configuration not stated), for which the cell number change was -15.4%. Under setting [2], the AC50 was 2.59 µM [falling, full curve, poor fit].

As for `CCC(C)NC(=O)COc1ccc(S(=O)(=O)N2CCOCC2)cc1` (configuration not stated), the cell number change was -11.9%.

For the compound `COCc1ccccc1C1=CC(=O)C[C@H](c2ccc(F)cc2)C1`, the cell number change was -26.8%. Further, the AC50 under setting [1] was 0.517 µM [falling, full curve, poor fit]. The AC50 under setting [2] was 1.16 µM [falling, single point].

Regarding `Cc1ccccc1OCCC(=O)Nc1cccc(S(=O)(=O)Nc2ccccc2Cl)c1`, the cell number change was 0.986%. In addition, the AC50 under setting [2] is 11.6 µM [rising, partial curve].

Take `COc1ccc(C/C(N)=N/n2cnnc2)cc1`: the AC50 under setting [2] was 0.461 µM [falling, full curve].

On to `Cc1ccc(N(C)C(=O)N2CCN(S(=O)(=O)c3ccc4ccccc4c3)CC2)cc1`, for which the cell number change is -8.28%. Moreover, the AC50 under setting [2] is 0.0651 µM [rising, partial curve, poor fit].

As for `O=C(COc1cccc2ccccc12)N/N=C/c1ccco1`, the cell number change is -19.1%. Under setting [2], the AC50 was 0.92 µM [falling, full curve, poor fit].

As for `CC(=O)Cc1nsc(NC(=O)c2ccc(COc3cccc(C)c3)o2)n1`, the cell number change turned out to be 8.26%.

As to `Fc1cccc(NC(=S)Nc2cccnc2)c1`, the cell number change was 6.95%. Further, under setting [2], the AC50 was 0.794 µM [falling, single point].

Take `CCC(c1nc2ccccc2c(=O)n1CCN1CCOCC1)N1C(=O)c2ccccc2C1=O` (configuration not stated): the cell number change was -1.53%.

Regarding `CCCC(=O)N1CCN(c2ccc(NC(=O)c3ccc4c(c3)OCCO4)cc2)CC1`, the cell number change was 55.5%. The AC50 under setting [1] was 18.4 µM [rising, partial curve]. Moreover, the AC50 under setting [2] was 6.51 µM [rising, single point].

Consider `CN(C(=O)COC(=O)c1ccc(-c2ccc(O)cc2)cc1)C1CCS(=O)(=O)C1` (configuration not stated), for which the cell number change came out at 4.1%. Moreover, the AC50 under setting [1] was 6.51 µM [falling, single point].

Turning to `CSc1nc(N)c(C#N)c(-c2ccc(Cl)cc2)c1C#N`, the cell number change was 3.43%. The AC50 under setting [1] is 6.51 µM [rising, single point].

On to `Cn1nc(C(C)(C)C)cc1C(=O)NCc1cc(F)cc2c1OCOC2`, for which the cell number change is -53.1%. For the same compound, the AC50 under setting [1] is 9.2 µM [falling, partial curve]. Moreover, the AC50 under setting [2] is 10.3 µM [falling, partial curve].

In the case of `CC1CCN(C(=O)NC(=O)c2ccccc2)CC1`, the cell number change was 15.2%. Further, the AC50 under setting [2] was 29.1 µM [falling, single point].

Regarding `c1cnc2ccc(-c3ccc4ncccc4c3)cc2c1`, the cell number change is -13.5%. Further, the AC50 under setting [2] was 25.9 µM [falling, single point].

For `O=C(c1ccc(CS(=O)(=O)c2ccc(Br)cc2)o1)N1CCN(c2ccc(F)cc2)CC1`, the cell number change was -39%. Besides, the AC50 under setting [1] was 29.1 µM [falling, single point].

Consider `CC(=O)NC1CC2CCCC(C1)N2CC(=O)NCc1ccc(F)cc1` (configuration not stated), for which the cell number change is -3.87%. In addition, the AC50 under setting [2] was 1.3 µM [falling, partial curve].

For `CC(=O)Nc1cc(OC(=O)c2ccco2)cc(OC(=O)c2ccco2)c1`, the cell number change was -0.0424%. In addition, the AC50 under setting [2] is 23.1 µM [falling, single point].

Turning to `COc1ccc(NC(=O)C2CC(=O)OC23CCOC(C)(C)C3)cc1` (configuration not stated), the cell number change worked out at 5.69%. Besides, the AC50 under setting [1] is 0.092 µM [falling, full curve, poor fit].

For `COc1ccc(S(=O)(=O)N(CC(=O)N2CCN(C)CC2)C2CCCCC2)cc1OC`, the cell number change is 20.9%. Further, the AC50 under setting [2] was 0.116 µM [rising, full curve, poor fit].

Values taken from PubChem BioAssay AID2685 (National Center for Advancing Translational Sciences (NCATS), 2010).
